# Where “and” joins values, the source holds several entries; their conditions need not be identical. Identical values can stand only once. *: point of attachment. Boc = CC(C)(C)OC(=O)*; OtBu = CC(C)(C)O*; tBu = CC(C)(C)*
# Experiment: general procedure: solution-phase peptide synthesis
# Details: for purity (crude or final not stated): 254 nm
Substance,"purity (crude or final not stated) (coupling step, TFA)","step yield (coupling step, TFA)",further results
Boc-K(Boc)GD(OtBu)E(OtBu)E(OtBu)S(tBu)LA-OtBu,86%,55%,–
Cbz-L-Glu(Ot-Bu)-L-Glu(Ot-Bu)-L-Ser(t-Bu)-L-Leu-L-Ala-Ot-Bu,–,–,"purity (crude or final not stated) (coupling step, TFA, run 1): 93% and 95%"
Cbz-L-Gly-L-Asp(Ot-Bu)-L-Glu(Ot-Bu)-L-Glu(Ot-Bu)-L-Ser(t-Bu)-L-Leu-L-Ala-Ot-Bu,90%,64%,–
H-L-Lys-L-Gly-L-Asp-L-Glu-L-Glu-L-Ser-L-Leu-L-Ala-OH-TFA,–,–,"final HPLC purity (late stage modification step, 215 nm, TFA salt): 98%; step yield (late stage modification step, TFA salt): 85%; isolated yield (whole synthesis, overall, TFA salt): total yield 13%"

# Reference: US20250313594 (published 2025)
